Experimental data taken from PubChem BioAssay AID662 (National Center for Advancing Translational Sciences (NCATS), 2007).
The list shows a part of the results. Further columns of the screen follow, without active or inactive calls. The list favours compounds with an active or inconclusive main result. Words in brackets tell the shape of the fitted curve; partial curves, single points and poor fits give uncertain potencies.

Assay: Cell signaling CRE-BLA (Fsk stim)
Settings: CHO CRE-bla reporter (cAMP response element driving beta-lactamase), forskolin EC10, beta-lactamase ratio; measured here: 460 nm blue channel
How it was run: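 The 460nm/530nm emission ratio after CCF4 loading defined %Activity, from which AC50 values were obtained. CRE-bla CHO cells received compound dilution series together with an EC10 level of NKH 477 for 3 hours at 37 degrees Celsius.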
In the case of `Cc1cccc(Cl)c1NC[C@H](O)CN1CCN(C)CC1`, the AC50 is reported as 0.0251 µM [rising, single point]. In the case of `CCOC(=O)C1=C(C)NC(SCc2cc(=O)[nH][nH]2)=C(C#N)C1c1cccs1` (centres undefined), the AC50 is reported as 5.01 µM [falling, partial curve]. For `COc1ccc2[nH]c(=O)c(CN(CCO)C(=O)c3ccccc3F)cc2c1`, the AC50 was 25.1 µM [falling, single point]. For `CC(C)c1ccccc1NC(=O)CCCC(=O)O`, the AC50 was 0.631 µM [rising, single point]. With `COc1ccc2c(C)c(Cl)c(=O)oc2c1` the AC50 was 15.8 µM [rising, partial curve]. With `CCCn1cnc2c(SCc3ccc(Cl)cc3)nc(N)nc21` the AC50 was 3.98 µM [rising, partial curve]. In the case of `O=C1CN(C(=O)COC(=O)c2ccccc2NC(=O)c2ccco2)c2ccccc2N1`, the AC50 is reported as 10 µM [rising, partial curve]. For `COc1ccc(-n2c(=O)c(-c3cccs3)nc3cnc(Nc4ccccc4)nc32)cc1`, the AC50 was 5.01 µM [rising, partial curve]. In the case of `CNc1nc(-c2cccc(NS(C)(=O)=O)c2)nc2ccccc12`, the AC50 is reported as 6.31 µM [rising, partial curve]. In the case of `COc1cc(NC(=O)c2cccc3c2C(=O)N(Cc2cccnc2)C3)cc(OC)c1OC`, the AC50 is reported as 2.51 µM [rising, partial curve]. In the case of `Nc1nc2c3ccccc3nc(C3CC3)n2n1`, the AC50 is reported as 25.1 µM [rising, single point]. In the case of `COCCN(CC(=O)NCc1ccccc1)C(=O)CCC(=O)Nc1ccccn1`, the AC50 is reported as 0.00316 µM [falling, full curve, poor fit]. With `CC(C#N)On1c(SC(C)C#N)nc2ccccc2c1=O` (centres undefined) the AC50 was 25.1 µM [rising, single point]. In the case of `Cc1cc(C)c2c(c1)-c1cc(C)nn1C(c1ccc3c(c1)OCO3)N2` (centres undefined), the AC50 is reported as 5.01 µM [falling, single point]. In the case of `O=C(Nc1nc(-c2nc3ccccc3s2)cs1)c1ccc(S(=O)(=O)N2CCOCC2)cc1`, the AC50 is reported as 5.01 µM [falling, full curve]. For `CCOC(=O)c1c(C)[nH]c(C)c1C(=O)Cn1nnc(-c2ccccc2C)n1`, the AC50 was 12.6 µM [rising, partial curve]. In the case of `CC(=O)c1ccc(Nc2nc(C)nc3c2oc2ccccc23)cc1`, the AC50 is reported as 2 µM [rising, full curve]. For `COCCN1C=C(C(=O)OC)C(c2cc3c(cc2Br)OCO3)C(C(=O)OC)=C1`, the AC50 was 10 µM [rising, partial curve]. In the case of `CC(C)N(C(=O)CSc1nnnn1C1CCCC1)C(C)C`, the AC50 is reported as 3.16 µM [falling, single point].
